Laboratory results: patent US20060252670A1, “Method of reducing drug-induced adverse side effects in a patient” (Intercept Pharmaceuticals Inc., priority 2004, published 2006)
For some of these results: At least one structure is not confirmed: it was looked up by name or label, or the drawing left a doubt. Some entries share one result that the patent states for a list of compounds.

Experiments:
HSC-T6 = test: α1(I) collagen, α-SMA and PPARγ mRNA in HSC-T6 exposed to FXR and PPARγ ligands; assay type: cell-based, rat; conditions: HSC-T6, 0.1 μM 6-ECDCA alone
[1] = system: liver fibrosis induced by porcine serum; test: Liver fibrosis induced by 8-week porcine serum administration to rats: 6-ECDCA, rosiglitazone and combination; assay type: in vivo, rat
Experimental: To investigate whether 6-ECDCA was effective in regulating PPARγ expression, porcine serum-administered rats (6-8 each group) were randomized to receive 1 and 3 mg/kg 6-ECDCA via gavage 5 times a week. Control rats were administered 3% carboxy-methyl cellulose (CMC) by gavage. At the end of the study, rats were sacrificed under anaesthesia with sodium pentobarbital (50 mg/kg, i.p.) and terminally bled via cardiac puncture. The liver was removed for examination and blood samples were taken.
Groups and duration of treatment are described in Table 1 below. Animals were followed for 8 weeks.
Collagen surface density was quantified using a computerized image analysis system (Image Acquisition System Ver. 005, Delta Sistemi, Rome, Italy) (see Fiorucci et al., supra). Hepatic and urinary content of hydroxyproline were determined by HPLC (LC Varian Prostar HPLC, Varian, Rome, Italy) as described in Fiorucci et al. (supra). The ANOVA followed by Dunnett or Bonferroni correction for multiple comparison were applied when appropriate during statistical analysis. EC50 were calculated using Prism III (Graphpad Software. Inc., San Diego, Calif.).

[2] = human, in vivo; cited from earlier work
[3] = Type II diabetic obese patient switched from rosiglitazone to 6ECDCA plus rosiglitazone; assay type: in vivo, human; conditions: rosiglitazone 8 mg daily 4 weeks then 4 mg daily 6 weeks by mouth
Experimental: The patient is started on a combination of 6ECDCA (150 mg) and rosiglitizone (2 mg) daily by mouth.

Row | Structure (SMILES) | decrease of α1(I) collagen and α-SMA mRNA (HSC-T6) | increase of liver PPARγ mRNA ([1]; 1 mg/kg alone) | reduction of markers of hepatic fibrosis ([1]; 1 mg/kg alone) | decrease of fibrotic area of liver parenchyma, hepatic hydroxyproline and α-SMA, α1(I) collagen, fibronectin, TGFβ1, TIMP-1 and TIMP-2 mRNAs ([1]; 3 mg/kg alone, versus porcine serum alone, P<0.01) | diabetic patients developing a diuretic resistant edema [2] | glycemic control [3]
1 | CC[C@H]1[C@@H](O)[C@@H]2[C@H](CC[C@]3(C)[C@@H]([C@H](C)CCC(=O)O)CC[C@@H]23)[C@@]2(C)CC[C@@H](O)C[C@@H]12 [6-ECDCA] | 30-40% | 1-2 fold | 20-30% | 50-60% |  | 
2 | CCc1ccc(CCOc2ccc(CC3SC(=O)NC3=O)cc2)nc1 (stereo not shown) [pioglitazone] |  |  |  |  | 6-15% | 
3 | CN(CCOc1ccc(CC2SC(=O)NC2=O)cc1)c1ccccn1 (stereo not shown) [rosiglitazone] |  |  |  |  | 6-15% | suboptimal glycemic control
